Data reported in publication PMC7016005 (2020).
Changes are numbered by the printed parent chain. Numbers in names are those of the source. Results are given in words; binding and its absence hold for the method and conditions named. Binding seen in cells or lysates may run through a third protein. Some binding calls cover weakened binding; strength is not graded here. One block for each binder: values may come before it.

Protein sequences, listed by entry. Tags and fused reporters are not part of them. Lines headed by an entry give the natural chain unless they say otherwise; changes in a name come on top.
UniProt P15806: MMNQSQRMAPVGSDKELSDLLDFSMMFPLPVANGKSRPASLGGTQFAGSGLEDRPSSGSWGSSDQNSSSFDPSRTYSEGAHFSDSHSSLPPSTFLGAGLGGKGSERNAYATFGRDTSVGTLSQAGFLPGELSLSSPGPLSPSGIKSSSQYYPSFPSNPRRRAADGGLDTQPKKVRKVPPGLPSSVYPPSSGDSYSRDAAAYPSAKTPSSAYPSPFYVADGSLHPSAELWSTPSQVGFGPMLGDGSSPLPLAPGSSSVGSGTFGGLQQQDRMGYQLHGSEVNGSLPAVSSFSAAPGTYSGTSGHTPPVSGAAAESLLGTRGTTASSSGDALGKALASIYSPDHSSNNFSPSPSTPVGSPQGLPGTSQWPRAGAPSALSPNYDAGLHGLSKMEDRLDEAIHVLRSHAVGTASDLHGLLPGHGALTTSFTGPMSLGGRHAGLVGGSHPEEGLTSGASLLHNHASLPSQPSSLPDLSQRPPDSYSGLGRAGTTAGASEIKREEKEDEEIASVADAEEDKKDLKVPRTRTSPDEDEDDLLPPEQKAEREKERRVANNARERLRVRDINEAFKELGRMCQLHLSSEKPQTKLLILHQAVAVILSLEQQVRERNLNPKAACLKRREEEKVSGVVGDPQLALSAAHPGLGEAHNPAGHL

Biological target: mouse E2A (mouse) (UniProt P15806)
Test: co-IP; HEK293T cells transfected with tagged E2A and wildtype or mutant Twist1; lysis buffer 20 mM Tris-HCl pH 7.5, 1 mM EDTA, 150 mM NaCl, 0.5% NP-40; supernatant incubated with M2 Magnetic Beads overnight; E2A as bait

- binding: binds
B1: mouse Twist1, wildtype (protein, UniProt P26687 1-206)
chain: MMQDVSSSPVSPADDSLSNSEEEPDRQQPASGKRGARKRRSSRRSAGGSAGPGGATGGGIGGGDEPGSPAQGKRGKKSAGGGGGGGAGGGGGGGGGSSSGGGSPQSYEELQTQRVMANVRERQRTQSLNEAFAALRKIIPTLPSDKLSKIQTLKLAARYIDFLYQVLQSDELDSKMASCSYVAHERLSYAFSVWRMEGAWSMSASH

- binding: binds
B2: mouse Twist1-A190T (protein, UniProt P26687 1-206)
chain: B1 chain with A190T

- binding: binds
B3: mouse Twist1-F191S (protein, UniProt P26687 1-206)
chain: B1 chain with F191S

- binding: no binding
B4: mouse Twist1-S192P (protein, UniProt P26687 1-206)
chain: B1 chain with S192P
